This passage reports binding results from paper doi:10.1101/2020.06.13.147785.

Sequences of proteins named here, by UniProt entry; tags and fusion partners are left off.
UniProt Q9QXZ7: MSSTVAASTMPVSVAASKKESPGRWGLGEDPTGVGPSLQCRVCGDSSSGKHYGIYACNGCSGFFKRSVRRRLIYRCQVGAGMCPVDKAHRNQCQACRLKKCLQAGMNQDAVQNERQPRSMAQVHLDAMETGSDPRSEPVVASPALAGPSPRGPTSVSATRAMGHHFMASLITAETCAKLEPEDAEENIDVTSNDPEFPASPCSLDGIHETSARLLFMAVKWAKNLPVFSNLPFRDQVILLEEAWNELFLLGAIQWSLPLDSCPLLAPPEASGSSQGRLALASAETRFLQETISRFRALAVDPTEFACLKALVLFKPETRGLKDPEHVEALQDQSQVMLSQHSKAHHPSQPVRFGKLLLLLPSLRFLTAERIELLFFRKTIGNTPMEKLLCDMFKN

This assay concerns the target NR2E3 wild type (long isoform encoded by the 8 exons of mouse Nr2e3) (mouse) (UniProt Q9QXZ7). The experiment in a line: FRET or BRET.

Results are given in words; binding and its absence hold for the method and conditions named. In cells and extracts the contact can be indirect. Some binding calls cover weakened binding; strength is not graded here.

As to “NR2E3 wild type (long isoform encoded by the 8 exons of mouse Nr2e3) (from UniProt Q9QXZ7 1-395)”, the binding entry is reported as “binds”.
